# Measurements published in paper PMC4600727 (2015).
# Results are given in words; binding and its absence hold for the method and conditions named. Binding can be weak; no strength is given. Tags and fused reporters may be left off the sequences shown. For part of these data: In cells and extracts the contact can be indirect.
# T1: GST-tagged Brat NHL (Drosophila) (UniProt Q8MQJ9)
# T1 sequence: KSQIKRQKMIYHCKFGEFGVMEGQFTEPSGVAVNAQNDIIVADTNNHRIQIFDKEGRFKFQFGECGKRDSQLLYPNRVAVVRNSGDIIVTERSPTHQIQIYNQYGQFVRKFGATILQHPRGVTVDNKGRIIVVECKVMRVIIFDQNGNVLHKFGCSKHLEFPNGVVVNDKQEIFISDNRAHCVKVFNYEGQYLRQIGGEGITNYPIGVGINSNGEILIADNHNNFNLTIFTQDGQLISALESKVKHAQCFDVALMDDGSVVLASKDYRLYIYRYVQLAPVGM
# Tests used:
# [1] = molecular target: T1, GST-tagged Brat NHL (Drosophila); experiment: pull-down; GST-tagged Brat NHL (8 μM) on GSH-Sepharose 4B, one partner (24 μM); 50 mM Tris pH 8.0, 100 mM NaCl, 1 mM DTT, 1 mM EDTA; 1 h at 4 °C; Coomassie; both purified
# [2] = molecular target: full-length Flag-Mira (Drosophila); experiment: co-IP; HEK293T cotransfected with full-length Flag-Mira and HA-Stau or GFP–Brat; lysate on anti-Flag M2 affinity gel overnight; immunoblot
# [3] = molecular target: full-length Flag-Mira (Drosophila); experiment: co-IP; competition: lysate with Flag-Mira and GFP–Brat on anti-Flag M2 affinity gel overnight with or without 0.8 mg purified Trx-Stau dsRBD5
binding [1],binding [2],binding [3],Molecule
binds,–,–,Mira CBDL (aa 210–668) (Drosophila) (domain or fragment)
–,binds,binds,"full-length GFP–Brat (protein, UniProt Q8MQJ9 1-1037) MASSPTPSLDSMRGGANSIESYEHAGYLSDSPLTLSGSSPPASDSAICSDEYTGGSSVKSRSEVTVINGHHPISASVSSSSSASSSSCSSSSSSSSSSSSSSSSTSGLSGCGSTSSSVISANNVASSNGPGVIGSNLQSSNNGGNSGISSLVVGAGKGSNSSSNSSSSNTSANGSPPRCTACKSKCSDAVAKCFECQSYLCANCVTAHEFMHCFNGHNVCLIKGFEASTTGTPLSVGSPSNNPASNEFKYASSLTMMLQQQQQLDSQQQQQQQQLLPAQPMSQLSKIVLAAAAQANSQEQQREDSIYGSLHPQQQQQQQQQQQRQLFCPRHKQELLKFSCRTCCILVCKECIVLEHSTGLHELENVQSPGMTTSTGSTANESALQTLLADMRGKIGEIVGIAGNSDQNLTKVKLQYQKAHNELNETHQFFASMLDERKTELLKELETLYTAKVNSNNSWQQRSRDLIDKGLATCEAVERSPAPPSSLLTEALLLRKSLEQQLQTGIQEMQLPFEIEFMSNYQSIQAGVRNTFGYIRANSSDGGPTGMSLTSNGHGKQPPIARPTQSASNSSASSAGSGHHGHHQQSHHHGHHNHHQTAHHQQLQAQSSLHGLGLGLSGASLLDSSSSAGGAVGAFSNGGLLLGGRDRNALAVEQHFGELMPKRGGGGYTGSNGSATSAVAHYNPYEKWSNGGSDNLFSSVTSGVSGSSAVADAFASLSAVGGSVVSGAGAGGSTVSSESLLDLTNKLLSATIYPPKSQIKRQKMIYHCKFGEFGVMEGQFTEPSGVAVNAQNDIIVADTNNHRIQIFDKEGRFKFQFGECGKRDSQLLYPNRVAVVRNSGDIIVTERSPTHQIQIYNQYGQFVRKFGATILQHPRGVTVDNKGRIIVVECKVMRVIIFDQNGNVLHKFGCSKHLEFPNGVVVNDKQEIFISDNRAHCVKVFNYEGQYLRQIGGEGITNYPIGVGINSNGEILIADNHNNFNLTIFTQDGQLISALESKVKHAQCFDVALMDDGSVVLASKDYRLYIYRYVQLAPVGM"
